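Methionyl-tRNA synthetase (putative), Leishmania donovani (UniProt E9BF75). Primary screen of methionyl-tRNA synthetase; the read-out is not stated. The test concentration is not given. The values are filed as inhibition. Of about 68,000 compounds tested this way, about 24 (0.035%) reached 50% or more in at least one test.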

Amino acid sequences for entries named in this document (tags omitted).
UniProt E9BF75, entry or part of it: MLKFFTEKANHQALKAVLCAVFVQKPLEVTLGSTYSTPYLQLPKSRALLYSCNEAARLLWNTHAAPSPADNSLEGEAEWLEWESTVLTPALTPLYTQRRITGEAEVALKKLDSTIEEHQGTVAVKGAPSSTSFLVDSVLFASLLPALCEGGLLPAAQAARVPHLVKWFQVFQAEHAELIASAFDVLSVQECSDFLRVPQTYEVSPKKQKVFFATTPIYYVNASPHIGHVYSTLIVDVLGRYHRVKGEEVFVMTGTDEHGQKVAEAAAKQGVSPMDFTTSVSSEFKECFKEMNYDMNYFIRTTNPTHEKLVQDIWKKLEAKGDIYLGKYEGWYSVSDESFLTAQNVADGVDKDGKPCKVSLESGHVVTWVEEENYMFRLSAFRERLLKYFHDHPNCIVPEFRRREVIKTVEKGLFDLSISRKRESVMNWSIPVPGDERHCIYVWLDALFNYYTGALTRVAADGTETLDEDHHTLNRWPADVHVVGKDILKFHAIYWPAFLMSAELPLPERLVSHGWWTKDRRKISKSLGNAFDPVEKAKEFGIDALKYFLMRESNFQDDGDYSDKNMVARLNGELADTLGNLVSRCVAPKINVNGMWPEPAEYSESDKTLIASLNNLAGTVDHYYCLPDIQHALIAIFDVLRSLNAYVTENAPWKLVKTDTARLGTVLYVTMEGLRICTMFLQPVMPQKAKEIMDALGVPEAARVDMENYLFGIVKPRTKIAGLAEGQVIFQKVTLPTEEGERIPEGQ

Results are percentages, as filed.
The controls that fix the scale are not given in the record; negative values are as filed.
The compounds are a random part of those screened.

* CO[C@H]1CCN(S(=O)(=O)N(C)C)[C@@H]2CN(Cc3cccnc3)C[C@H]12 | 11.5%
* NCC1CCCCN1C(=O)Cc1ccc(F)c(F)c1 (stereo not drawn) | 22.07%
* CCSCc1csc(-c2ccc(S(C)(=O)=O)cc2)n1 | 9.399%
* O=C(CO)N1CCN(S(=O)(=O)CCCF)CC1 | 9.946%
* COc1cccc(S(=O)(=O)Cc2noc(CC(C)C)n2)c1 | 8.239%
* Cc1cc(C)c(CNC(=O)C2COc3ccccc3C2)c(=O)[nH]1 (stereo not drawn) | -4.032%
* O=C1NCCCc2[nH]c(Cc3cccc(F)c3)nc21 | 6.522%
* Cc1ncsc1CN1C[C@H]2OCC[C@H]2[C@H](C(=O)NCC2CC2)C1 | 12.5%
* COc1ccc(CN2CC[C@@H]3[C@H]2CCC(=O)N3c2cnn(C)c2)cc1 | 3.014%
* CCCn1nc(C)c2c1NC(=O)CC2c1ccc(CN2CCCC2)s1 (stereo not drawn) | 16.53%
* CCN1CC(COC(C)(C)C)Oc2ccncc2S1(=O)=O (stereo not drawn) | -0.8108%
* c1ccc(OCCN2CCCCC2Cn2cncn2)cc1 (stereo not drawn) | 2.761%
* COCc1cc(NCc2ccccc2OC)ncn1 | 9.507%
* c1ccc(OCCCN2CCOC(CNc3cccnn3)C2)cc1 (stereo not drawn) | 13.64%
* CCN(CC)C1CCN(C(=O)NCc2cccc(NC(C)=O)c2)C1 (stereo not drawn) | 6.266%
* COCCC(=O)N1CCC(c2ncncc2-c2ccnc(N)c2)C1 (stereo not drawn) | 14.17%
* O=C(COCc1ccccc1)N1CCN(Cc2ccccc2F)C(=O)C1 | 0%
* CC(C)COCC1CN(C(=O)c2cscn2)Cc2ncn(C)c21 (stereo not drawn) | 16.1%
* O=C(CC1OCCc2ccsc21)NCC1CC1 (stereo not drawn) | 9.218%
* CC1CCc2n[nH]c(C(=O)NCCc3ccco3)c2C1 (stereo not drawn) | 6.452%
* OC(c1ccccc1)c1cn(C2CCN(Cc3nccs3)CC2)nn1 (stereo not drawn) | 11.17%
* O=C(NCCNCC1CNc2ccnn2C1)c1ccc(F)cc1 (stereo not drawn) | 11.96%
* O=C(c1ccccc1F)N1CCCn2c(CN3CCCCC3)nnc2C1 | 15.38%
* CC1(C)OCC(CNC(=O)c2cnn(-c3cc(Cl)ccc3Cl)c2N)O1 (stereo not drawn) | 5.944%
* Cc1nc(N(C)C)nc(NCCc2cnccn2)c1C | 8.411%
* Cc1cnn(CC2CCN(CC(O)c3ccccc3Cl)CC2)c1 (stereo not drawn) | 13.09%
* CC(=O)Nc1nc(-c2ccccc2)c[nH]1 | 6.211%
* Cc1nc(O)cc(C2CCN(Cc3cccc(F)c3F)C2)n1 (stereo not drawn) | 14.73%
* COc1ccc(CN2CCO[C@H]3CN(C(=O)C4CC4)CC[C@H]3C2=O)cc1 | 17.83%
* CCOc1cc(C)nc(N2CCN(C(=O)c3cn[nH]c3CC)CC2)n1 | 27.32%
* Cc1cccc(COC[C@]23COC[C@H]2CN(C(=O)c2ccsc2)C3)n1 | 20%
* CC(=O)N1CC[C@H]2[C@H](C[C@@H](Cn3cncn3)N2c2nccs2)C1 | 7.246%

3 of the entries, repeated:

{"structure": "CO[C@H]1CCN(S(=O)(=O)N(C)C)[C@@H]2CN(Cc3cccnc3)C[C@H]12", "inhibition": 11.5}
{"structure": "NCC1CCCCN1C(=O)Cc1ccc(F)c(F)c1", "stereo": "stereo not drawn", "inhibition": 22.07}
{"structure": "Cc1ncsc1CN1C[C@H]2OCC[C@H]2[C@H](C(=O)NCC2CC2)C1", "inhibition": 12.5}

From ChEMBL document CHEMBL3988442, “University of Dundee, Small-Polar-MMV Screening Library” (2021).